Test results: patent US20040214799A1, “Cancerous metastasis inhibitors containing carbacyclic phosphatidic acid derivatives” (priority 2001, published 2004)
At least one compound was matched to its structure with a doubt left.

Tested on: MM1 cells
Assay: Measurement of intracellular cAMP in MM1 cells
Type: cell-based, rat
Details: 25 μM cPA or 10 μM Forskolin, pretreated with 1 mM IBMX
Protocol: After a certain time period, 10% ice-cooled TCA was added to stop the reaction. The centrifuged supernatant was washed 4 times with water-saturated diethylether to remove TCA, and then placed under nitrogen gas flow at 60° C. to remove the solvent completely. cAMP in the resultant sample was measured using a cyclic AMP [^3H] assay system (Amersham).

SMILES: C=C[C@@]1(C)CC(=O)[C@]2(O)[C@@]3(C)[C@@H](O)CCC(C)(C)[C@@H]3[C@H](O)[C@H](OC(C)=O)[C@@]2(C)O1 [Forskolin, reference compound]
- change of intracellular cAMP concentration (in words): increase of cAMP concentration
